# Results as given in patent US7045531B1, “Composition comprising a metal chelator and a method of treating amyloidosis by administering the metal chelator” (The General Hospital Corporation, priority 1997, dated 2006).
# Some of these results come from one statement about several compounds together.
# Test system: Aβ deposits in AD brain tissue
# Experiment: Chelator-promoted solubilization (extraction) of Aβ from AD brain homogenates, Western blot densitometry
# Type: biochemical, human
# Details: titration curves
# Experimental: 0.5 g of prefrontal cortex was dissected and homogenized in PBS±chelator as indicated. The homogenate was then centrifuged (100,000 g) and the supernatant removed, and a sample taken for western blot assay using anti-Aβ specific antibodies after Tricine PAGE. Densitometry was performed against synthetic peptide standards.
# Suitable quantities of gray matter from each subject were minced to serve as pools of homogenous tissue. […] To obtain the soluble fraction, the homogenates were centrifuged at 100,000×g for 30 min (Beckman J180, Beckman instruments, Fullerton, Calif.) and the supernatant collected in 1 ml aliquots and stored on ice or immediately frozen at −70° C. […]
# Precipitated protein was subjected to SDS polyacrylamide gel electrophoresis (SDS-PAGE) on Novex pre-cast 10–20% Tris-Tricine gels followed by Western transfer onto 0.2 μm nitrocellulose membrane (Biorad, Hercules, Calif.). […] Each gel included two or more lanes containing known quantities of synthetic Aβ which served as internal reference standards. […] For quantitation of Aβ in brain extracts, the internal reference standards of synthetic Aβ were utilized to produce standard curves from which values were interpolated.
smiles,measurement,value
"c1ccc(CN(CCN(Cc2ccccn2)Cc2ccccn2)Cc2ccccn2)nc1 [TPEN, N,N,N′,N′-tetrakis [2-pyridyl-methyl]ethylenediamine]",concentration over which increasingly ineffective,over 1 mM
